# The list shows a part of the results. Further columns of the screen follow, without active or inactive calls. The list favours compounds with an active or inconclusive main result. Potencies come from curve fits of mixed quality, noted in brackets.
# Experiment: qHTS Assay for Lipid Storage Modulators in Drosophila S3 Cells;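 for cell number change: cells counted by Cell Tracker Red CMTPX staining in the red channel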
# Settings: BODIPY lipid droplet fluorescence, 18-24 h; for cell number change: measured here: cell count max response, cells fed with added oleic acid
# Procedure, shortened: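 Laser-scanning cytometry quantifies lipid droplet accumulation (500–530 nm total intensity; droplet/cell object ratio) in oleic acid-fed (400 uM added) Drosophila S3 cells treated with a concentration series. 20 uM Triacsin C defined 100% inhibition.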
# [1] = measured here: cell number channel AC50, cells fed with added oleic acid
# [2] = measured here: lipid fluorescence (Fed channel) AC50, cells fed with added oleic acid
SMILES,AC50 [1],AC50 [2],cell number change [%]
O=C(CCCn1c(SCC(=O)c2ccc(F)cc2)nc2ccccc2c1=O)NCc1ccccc1,"0.731 µM [rising, full curve]","1.46 µM [rising, full curve]",–
Cc1csc(CCc2nc(C)cs2)n1,–,"11.6 µM [rising, single point]",-0.452
CN1CCN(NC(=O)c2ccc(Cl)c([N+](=O)[O-])c2)CC1,–,–,-15
COc1cccc(Oc2ccc(C(F)(F)F)cc2NC(=O)CCc2nc3ccccc3c(=O)[nH]2)c1,–,"23.1 µM [falling, single point]",-1.05
COc1ccc(OC)c(CNc2ccc3c(c2)CCC3)c1,–,"0.13 µM [rising, full curve, poor fit]",–
C=CCNC(=S)Nc1sc2c(c1C(=O)OCC)CC(C(C)C)OC2 (stereo not given),"29.1 µM [rising, single point]","4.61 µM [falling, single point]",63.3
NC(=O)CC(NC(=O)c1cccc(Br)c1)c1ccc(N2CCCCCC2)c([N+](=O)[O-])c1 (stereo not given),–,"6.51 µM [rising, single point]",9.88
CCCCOc1ccc(CSCCNC(=S)Nc2ccccc2)cc1,–,"13 µM [falling, partial curve]",-11
COC(=O)C(NC(=O)CN1C(=O)c2ccccc2C1=O)c1ccc(O)c(OC)c1 (stereo not given),–,"29.1 µM [rising, single point]",-0.787
CC1(C)CC(NC(=O)Nc2ccc([N+](=O)[O-])cc2)CC(C)(C)N1,"0.366 µM [falling, full curve, poor fit]","0.82 µM [falling, full curve, poor fit]",-55.4
Cc1nn(-c2ccccc2)c(N2CCCC2)c1/C=N/O,–,"6.51 µM [rising, single point]",27.7
COc1ccccc1Nc1n[nH]c(=S)s1,–,–,31.8
O=C(O)O,–,"29.1 µM [falling, single point]",0.924
Brc1ccccc1-c1nc(-c2ccccc2)no1,"20.6 µM [rising, partial curve]","20.6 µM [rising, partial curve]",204
CCn1cc(C2=NCCO2)c2ccccc21,"0.103 µM [falling, full curve, poor fit]",–,–
O=[N+]([O-])c1cc(Cc2ccccc2)cc(C=Nc2ccc(N3CCOCC3)cc2)c1O,–,"0.517 µM [falling, single point]",-29.6
COc1ccc(N2CCN(c3ccc(NC(=O)/C=C\C(=O)O)cc3)CC2)cc1,"11.6 µM [falling, single point]",–,-30.2
O=C(CNC(=O)c1ccc(Br)o1)NCc1ccc2c(c1)OCO2,–,"5.17 µM [rising, single point]",16
O=C(NCCNC(=O)c1cc(OCC(F)(F)F)ccc1OCC(F)(F)F)Nc1ccccc1,–,"0.231 µM [falling, full curve, poor fit]",-30.2
CCOc1ccc2oc(C(=O)N(Cc3nnc(-c4ccccc4Cl)o3)C3CC3)c(C)c2c1,–,–,-29.1
O=C(NC1CCS(=O)(=O)C1)c1cccc(S(=O)(=O)N2CCCC2)c1 (stereo not given),–,–,-40.5

SMILES,AC50 [1],AC50 [2],cell number change [%]
Cc1noc(C)c1C(=O)Nc1ccc(Cl)cc1C(F)(F)F,–,"0.731 µM [rising, single point]",15.3
Cc1ccc(C)c(NC(=O)CSc2n[nH]c(-c3ccccn3)n2)c1,–,–,-7.62
CC(C)CC(=O)NC(NCC1CCCO1)C(Cl)(Cl)Cl (stereo not given),"2.31 µM [falling, full curve]","0.366 µM [falling, partial curve, poor fit]",-72.4
CCc1ccc2nc(N3CCN(C)CC3)c(C#N)cc2c1,–,–,-3.2
Cc1c(NC(=O)c2ccc(=O)oc2)c(=O)n(-c2ccccc2)n1C,"6.51 µM [rising, single point]",–,–
Cn1c(SCC(=O)NC2CCCCC2)nnc1-c1ccccc1O,–,"29.1 µM [rising, single point]",12.7
NS(=O)(=O)c1ccc(NC(=O)COC(=O)C23CC4CC(CC(C4)C2)C3)cc1,–,"29.1 µM [rising, single point]",-12.1
CCOC(=O)C1CCN(C(=O)Cc2ccc(C)cc2)CC1,"29.1 µM [falling, single point]","29.1 µM [falling, single point]",-64.4
Cc1cnc(NC(=O)c2cc3c(C)nn(Cc4ccccc4Cl)c3s2)s1,–,–,6.2
O=C(NCc1ccccn1)c1ccc(NS(=O)(=O)c2ccccc2)cc1,–,–,23.7
CCN(CC)S(=O)(=O)c1cccc(C(=O)N/N=C/c2cccc(O)c2O)c1,–,"5.17 µM [rising, full curve, poor fit]",2.2
CC(=O)C(Sc1ncnc2sc3c(c12)CCCC3)C(C)=O,"0.0731 µM [rising, full curve, poor fit]",–,–
COc1ccc(C(=O)Nc2cc(Cl)ccc2OC(=O)c2ccc(OC)cc2)cc1,–,"32.6 µM [falling, single point]",-29.3
O=C(NCCCn1ccnc1)c1cccc(S(=O)(=O)N2CCCCCC2)c1,"2.91 µM [rising, full curve]","2.59 µM [rising, partial curve]",123
C/C(=C\c1ccco1)C1C(C#N)=C(N)Oc2n[nH]c(-c3ccc(C)cc3)c21 (stereo not given),"18.4 µM [falling, partial curve]","29.1 µM [falling, single point]",-57
CC(=O)Nc1ccc(NC(=O)CSc2nnnn2-c2ccc3c(c2)OCCO3)cc1,–,–,-26
O=C(CSc1nc2ccccc2[nH]1)Nc1cc(C(F)(F)F)ccc1N1CCOCC1,–,"0.366 µM [rising, partial curve]",-18.2
COc1ccc(CN(C)C(=O)c2cnc(C)cn2)c(OC)c1OC,–,"23.1 µM [rising, single point]",21.5
CCC(C)NC(=O)C1CCN(C(=O)COc2ccc3c4c(c(=O)oc3c2C)CCCC4)CC1 (stereo not given),"29.1 µM [rising, single point]",–,34
CC12CCCCC1N(O)C(=O)C(=O)N2O (stereo not given),"29.1 µM [rising, single point]","6.51 µM [falling, single point]",69.5
COc1ccccc1N(C)S(=O)(=O)c1ccc(C(=O)NCc2ccc3c(c2)OCO3)cc1,–,"29.1 µM [rising, single point]",–

SMILES,AC50 [1],AC50 [2],cell number change [%]
Cn1nc(C(C)(C)C)cc1C(=O)NCc1ccc2c(c1)OCO2,"5.17 µM [falling, full curve]",–,-38.1
CCOc1ccc(NC(=O)CCN2CCN(c3ccccc3OC)CC2)cc1,–,"2.06 µM [rising, partial curve]",10.4
OCC1N=C(c2ccccn2)OC1c1ccccc1 (stereo not given),"0.0731 µM [falling, full curve, poor fit]","18.4 µM [rising, single point]",–
CS(=O)(=O)c1sc2nc(-c3cccs3)cc(-c3ccccc3)c2c1N,–,"1.3 µM [rising, partial curve]",5.36
COc1ccc(N(CC(=O)Nc2cc(C)on2)S(=O)(=O)c2ccc(Cl)cc2)cc1,"23.1 µM [rising, partial curve]",–,79.1
Cc1nc(NC(C)C)c2cnn(CCc3ccccc3)c2n1,"0.411 µM [rising, full curve]",–,–
COC(=O)C1=C(N)Oc2cc(C)n(Cc3cccnc3)c(=O)c2C1c1cc(OC)ccc1OC (stereo not given),–,"0.651 µM [falling, full curve, poor fit]",-9.73
Cc1ccc(S(=O)(=O)N2CCN(C(=O)c3ccco3)CC2)cc1C,–,"9.2 µM [rising, partial curve, poor fit]",25.7
Cc1cc(NC(=O)C2CCCN2C(=O)Nc2cccc(Cl)c2)ccc1-n1cnnn1 (stereo not given),–,"18.4 µM [rising, single point]",20.5
CN1C(=O)/C(=C2\SC(N3CCCCCC3)=NC2=O)c2ccccc21,"1.84 µM [rising, partial curve, poor fit]","1.84 µM [rising, partial curve]",–
COc1cccc(NC(=O)/C=C/c2ccco2)c1,–,"32.6 µM [rising, single point]",18.8
COc1cc(NS(=O)(=O)c2ccc(NC(=S)NC(=O)c3ccc(F)cc3)cc2)nc(OC)n1,–,–,21
Cc1ccc(C(=O)OCC(=O)NCc2cccs2)c(C)c1,"29.1 µM [rising, single point]",–,145
CCC(C)(C)C1CCC2(CC1)NC(=O)N(CC(=O)N(C)CCOc1ccc(Cl)cc1)C2=O (stereo not given),–,"16.4 µM [rising, single point]",21.6
COc1ccc(/C=C/C(=O)Nc2cccc(C(C)=O)c2)cc1,–,"25.9 µM [rising, partial curve]",13.1
COc1ccc(C(CNc2ncnc3sc(C)c(C)c23)N(C)C)cc1 (stereo not given),–,–,-14.1
CC(C)NCCOCCOc1ccc(Cl)cc1Br,–,"3.26 µM [falling, partial curve, poor fit]",23.6
CC(=O)c1ccc(NC(=O)C(C)Sc2nnc(C3CCCCC3)o2)cc1 (stereo not given),–,"6.51 µM [rising, single point]",29.5
C#CCSc1nnnn1-c1ccc(OCC)cc1,–,"20.6 µM [rising, partial curve, poor fit]",-2.5
O=C(O)C1CCN(C(=O)COc2ccc3c(c2)oc(=O)c2ccccc23)CC1,–,"1.46 µM [rising, full curve]",11.4

# Pulled by compound from above (2):
SMILES,AC50 [1],AC50 [2],cell number change [%]
CCOc1ccc(NC(=O)CCN2CCN(c3ccccc3OC)CC2)cc1,–,"2.06 µM [rising, partial curve]",10.4
COC(=O)C1=C(N)Oc2cc(C)n(Cc3cccnc3)c(=O)c2C1c1cc(OC)ccc1OC (stereo not given),–,"0.651 µM [falling, full curve, poor fit]",-9.73

# Full records from above.
# COc1ccc(/C=C/C(=O)Nc2cccc(C(C)=O)c2)cc1 is listed with AC50 [2]: 25.9 µM [rising, partial curve]; cell number change [%]: 13.1
# COc1cc(NS(=O)(=O)c2ccc(NC(=S)NC(=O)c3ccc(F)cc3)cc2)nc(OC)n1 is listed with cell number change [%]: 21

# From PubChem BioAssay AID2685 (National Center for Advancing Translational Sciences (NCATS), 2010)
